Binding data for two molecules are collected here from PMC4847170, “Insights into the DNA-binding mechanism of a LytTR-type transcription regulator”.

Positions count from the first letter of the chain named. Names and notes keep the numbering of the source. Results are given in words; binding and its absence hold for the method and conditions named. Tags and fused reporters may be left off the sequences shown.

The target in assay [1] is 6His-YpdB (Escherichia coli) (UniProt P0AE39). The assay can be described thus: SEC; calibrated Superdex 200 Increase GL HR10/300 column; 50 mM Tris/HCl pH 7.6, 10% (v/v) glycerol, 150 mM NaCl, 2 mM DTT; oligomeric state of the purified protein; both purified.
Assay [2] addresses 6His-YpdB-D53E (Escherichia coli) (UniProt P0AE39). Described as above.

B1: 6His-YpdB (protein, UniProt P0AE39 1-244)
chain: MKVIIVEDEFLAQQELSWLIKEHSQMEIVGTFDDGLDVLKFLQHNRVDAIFLDINIPSLDGVLLAQNISQFAHKPFIVFITAWKEHAVEAFELEAFDYILKPYQESRITGMLQKLEAAWQQQQTSSTPAATVTRENDTINLVKDERIIVTPINDIYYAEAHEKMTFVYTRRESYVMPMNITEFCSKLPPSHFFRCHRSFCVNLNKIREIEPWFNNTYILRLKDLDFEVPVSRSKVKEFRQLMHL
Turning to B1, in assay [1], the binding entry is listed as “no binding”.

B2: 6His-YpdB-D53E (protein, UniProt P0AE39 1-244)
chain: B1 chain with D53E
Take B2: the binding result in assay [2] was “no binding”.
